This note sets out measurements from patent US6716811B1, “Compounds having affinity for the granulocyte-colony stimulating factor receptor (G-CSFR) and associated uses” (Affymax, Inc., priority 2000, dated 2004).

Sequences of proteins named here, by UniProt entry; tags and fusion partners are left off. Residues count along the entry.
UniProt Q99062, residues 25-627: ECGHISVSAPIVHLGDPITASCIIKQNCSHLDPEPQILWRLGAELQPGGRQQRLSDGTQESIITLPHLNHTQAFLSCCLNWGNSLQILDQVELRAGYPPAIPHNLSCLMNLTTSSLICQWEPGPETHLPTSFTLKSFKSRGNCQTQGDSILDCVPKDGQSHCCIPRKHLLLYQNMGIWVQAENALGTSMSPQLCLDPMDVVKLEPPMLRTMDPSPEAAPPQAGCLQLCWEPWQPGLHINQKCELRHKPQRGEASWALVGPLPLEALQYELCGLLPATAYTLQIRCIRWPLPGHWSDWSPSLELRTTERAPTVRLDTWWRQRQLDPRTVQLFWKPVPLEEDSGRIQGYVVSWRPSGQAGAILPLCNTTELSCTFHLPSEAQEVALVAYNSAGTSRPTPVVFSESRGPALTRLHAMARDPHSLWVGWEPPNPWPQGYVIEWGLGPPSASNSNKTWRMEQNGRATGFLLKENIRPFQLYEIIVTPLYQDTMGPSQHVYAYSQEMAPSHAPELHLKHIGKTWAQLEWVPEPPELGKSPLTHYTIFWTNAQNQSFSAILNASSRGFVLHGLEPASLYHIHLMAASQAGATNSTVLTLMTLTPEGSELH

The target in assay [1] is granulocyte-colony stimulating factor receptor (G-CSFR), purified (UniProt Q99062). Description: specific binding to G-CSFR; column 'Specific Binding?'.
Assay [2] has the same target. Kind of assay: competition with 125I-G-CSF on immobilised G-CSFR; column 'Competitive Binding?'.

No constants are given. Whether binding was seen depends on the method and setting. Some results given as binding are weak or reduced against the parent protein; the word gives no strength.

B1: … (peptide)
peptide: EQSNSGWVWV
On to B1, for which the binding result in assay [1] is reported as “binds”.

B2: … (peptide)
peptide: CACMLRVVHC
For B2, the binding result in assay [1] and in assay [2] was “binds” each time.

B3: … (peptide)
peptide: SRTESGWVWT
On to B3, for which, in assay [1], the binding result is recorded as “binds”.

B4: … (peptide)
peptide: CSFVQLNSIC
Consider B4, for which the binding entry in assay [1] and in assay [2] was “binds” throughout.

B5: … (peptide)
peptide: DYDNSGWVWH
In the case of B5, the binding entry in assay [1] is reported as “binds”.

B6: … (peptide)
peptide: STSERAWFCG
Consider B6, for which the binding entry in assay [1] and in assay [2] was “binds” each time.

B7: … (peptide)
peptide: CNREIEAMCC
For the molecule B7, the binding result in assay [1] and in assay [2] was “binds” each time.

B8: … (peptide)
peptide: DWQKTIPAYW
As to B8, the binding result in assay [1] and in assay [2] was “binds” in each case.

B9: … (peptide)
peptide: CAGEVMHMCC
As to B9, the binding result in assay [1] and in assay [2] was “binds” throughout.

B10: … (peptide)
peptide: ADNAERGWFC
With B10, the binding entry in assay [1] and in assay [2] was “binds” in each case.

B11: … (peptide)
peptide: CADEVMHFCC
Consider B11, for which the binding result in assay [1] and in assay [2] was “binds” in each case.

B12: … (peptide)
peptide: QRANSGWVWV
Turning to B12, the binding entry in assay [1] was “binds”.

B13: … (peptide)
peptide: CDPWMFYDLC
For B13, the binding result in assay [1] is listed as “binds”.

B14: … (peptide)
peptide: ASWSERGWFC
On to B14, for which the binding result in assay [1] and in assay [2] was “binds” each time.

B15: … (peptide)
peptide: CVPWMFYDLC
Take B15: the binding result in assay [1] was “binds”.

B16: … (peptide)
peptide: YETAERSYFC
As for B16, the binding entry in assay [1] and in assay [2] was “binds” throughout.

B17: … (peptide)
peptide: ELSSEREWFC
Turning to B17, the binding result in assay [1] and in assay [2] was “binds” each time.

B18: … (peptide)
peptide: CDVWQLFDRC
For B18, the binding entry in assay [1] and in assay [2] was “binds” each time.

B19: … (peptide)
peptide: CPHWTSYYMC
B19: the binding entry in assay [1] and in assay [2] was “binds” throughout.

B20: … (peptide)
peptide: ETWGERDWFC
As to B20, the binding result in assay [1] and in assay [2] was “binds” in each case.

B21: … (peptide)
peptide: DTWLELESRY
Consider B21, for which, in assay [1], the binding entry is recorded as “binds”.

B22: … (peptide)
peptide: SNESGWVWLP
As to B22, the binding result in assay [1] was “binds”.

B23: … (peptide)
peptide: DEMVYTVPYW
With B23, the binding result in assay [1] and in assay [2] was “binds” throughout.

B24: … (peptide)
peptide: DMQGERGWFC
In the case of B24, the binding entry in assay [1] and in assay [2] was “binds” in each case.

B25: … (peptide)
peptide: DMVYAYPPWS
Regarding B25, the binding entry in assay [1] is reported as “binds”.

B26: … (peptide)
peptide: CPDWYQSYMC
For B26, the binding result in assay [1] and in assay [2] was “binds” each time.

B27: … (peptide)
peptide: HTTNEQFFMC
As to B27, the binding entry in assay [1] and in assay [2] was “binds” each time.
